PubChem BioAssay AID2685 (National Center for Advancing Translational Sciences (NCATS), 2010)
Several values for one entry are separate records, joined by “and”; a condition that tells them apart may be missing. Equal entries are not always repeated. Some of the results follow. The main result of the screen is listed elsewhere. These columns were measured beside it and carry no call. Compounds called inactive in the main read-out are mostly missing here. Words in brackets tell the shape of the fitted curve; partial curves, single points and poor fits give uncertain potencies.

Test: qHTS Assay for Lipid Storage Modulators in Drosophila S3 Cells;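 on cell number change: cells counted by Cell Tracker Red CMTPX staining in the red channel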
Settings: BODIPY lipid droplet fluorescence, 18-24 h; for cell number change: measured here: cell count max response, cells fed with added oleic acid
In short: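 Drosophila S3 cells got compounds at several concentrations plus oleic acid (400 uM solution). Laser-scanning cytometry with 488 nm excitation read lipid droplets at 500-530 nm and cells at 575-640 nm. Percent activity was relative to 20 uM Triacsin C.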

[1] = measured here: cell number channel AC50, cells fed with added oleic acid
[2] = measured here: lipid fluorescence (Fed channel) AC50, cells fed with added oleic acid

Question: Which cell number change does the source give for `Cc1cc(C(=O)N2C(C)CCCC2C)no1` (configuration not stated) here?
Answer: 19.6%

Question: Which cell number change does the source give for `O=C(CN1C(=O)S/C(=C\c2ccc(O)c([N+](=O)[O-])c2)C1=O)Nc1ccc(N2CCOCC2)cc1` here?
Answer: -14.2%

Question: And the AC50 [1]?
Answer: 0.651 µM [falling, full curve, poor fit]

Question: For `O=C(O)c1n[nH]c2ccccc12`, which cell number change is on record?
Answer: -97.1%

Question: What about the AC50 [1] of the same compound?
Answer: 29.1 µM [falling, partial curve]

Question: What about the AC50 [2] of the same compound?
Answer: 20.6 µM [falling, partial curve]

Question: For `CC1CCN(CC(=O)NC2CCCCC2)CC1`, which cell number change is on record?
Answer: 16.1%

Question: With `O=C(NCC1CCCCC1)c1ccc(Br)o1` as the compound, how does the cell number change read?
Answer: -13%

Question: What about the AC50 [2] of the same compound?
Answer: 29.1 µM [falling, single point]

Question: Which cell number change does the source give for `O=S(=O)(Nc1nc2ccccc2nc1NCc1ccco1)c1ccccc1` here?
Answer: -6.71%

Question: What about the AC50 [2] of the same compound?
Answer: 4.61 µM [rising, full curve]

Question: Which cell number change does the source give for `COc1cc2c(cc1OC)C(C(=O)N1CCN(c3ccccc3)CC1)C(c1cccs1)N(C)C2=O` (configuration not stated) here?
Answer: -6.18%

Question: And the AC50 [2]?
Answer: 6.51 µM [falling, single point]

Question: With `O=C(NCCc1c[nH]c2ccccc12)C(=O)NCC1OCCN1S(=O)(=O)c1ccc(F)cc1` (configuration not stated) as the compound, how does the cell number change read?
Answer: 0.886%

Question: And the AC50 [1]?
Answer: 0.651 µM [rising, full curve, poor fit]

Question: And the AC50 [2]?
Answer: 1.03 µM [rising, full curve]

Question: Which results are given for `COc1ccccc1CCC(=O)Nc1ccc(OC)c(S(=O)(=O)N2CCCCC2)c1`?
Answer: cell number change: -11.1%; AC50 [1]: 6.51 µM [rising, single point]; AC50 [2]: 6.51 µM [rising, single point]

Question: Which cell number change does the source give for `CCCNC(=O)c1ccccc1NC(=O)Nc1ccccc1C` here?
Answer: 55.4%

Question: What about the AC50 [1] of the same compound?
Answer: 0.231 µM [rising, full curve]

Question: And the AC50 [2]?
Answer: 2.31 µM [rising, partial curve, poor fit]

Question: Which cell number change does the source give for `Cn1c(=O)c2c3c(sc2n2c(SCc4ccc5c(c4)OCO5)nnc12)COC(C)(C)C3` here?
Answer: -1.91%

Question: What about the AC50 [2] of the same compound?
Answer: 0.0184 µM [rising, full curve, poor fit]

Question: Which AC50 [2] does the source give for `CC1CCCN(C(=O)c2ccc3c(c2)C(=O)N(CCC2=CCCCC2)C3=O)C1` (configuration not stated) here?
Answer: 29.1 µM [falling, single point]

Question: For `O=C(O)CCN1C(=O)c2ccc(Oc3ccc4c(c3)C(=O)N(CCC(=O)O)C4=O)cc2C1=O`, which cell number change is on record?
Answer: 6.38%

Question: Which cell number change does the source give for `CC1CN(Cc2cnc(Cl)s2)CC(C)O1` (configuration not stated) here?
Answer: -20.1%

Question: And the AC50 [2]?
Answer: 35.5 µM [falling, single point]

Question: With `Cc1ccc(C2(C)NC(=O)N(CC(=O)Nc3ccc(S(=O)(=O)Nc4nccs4)cc3)C2=O)cc1` (configuration not stated) as the compound, how does the cell number change read?
Answer: -41.3%

Question: What about the AC50 [1] of the same compound?
Answer: 5.8 µM [falling, partial curve]

Question: And the AC50 [2]?
Answer: 6.51 µM [falling, partial curve]

Question: What does the source list for `Cn1cc(CCC(=O)NCCCc2ccccc2)c2ccccc21`?
Answer: cell number change: 24.6%; AC50 [1]: 1.64 µM [rising, full curve, poor fit]; AC50 [2]: 3.66 µM [rising, single point]

Question: For `CCN(CCn1cccn1)C(=O)c1ccc2nc(Cc3ccc(OC)cc3)oc2c1`, which cell number change is on record?
Answer: -6.12%

Question: What about the AC50 [2] of the same compound?
Answer: 0.103 µM [falling, full curve, poor fit]

Question: Which cell number change does the source give for `COc1ccccc1C(=O)NC(=O)CSc1nncn1C` here?
Answer: -23.9%

Question: For `Cc1ccc(/C=C2\SC(=O)N(CCC(=O)N3CCN(C)CC3)C2=O)cc1`, which cell number change is on record?
Answer: -4.5%

Question: And the AC50 [2]?
Answer: 0.13 µM [falling, full curve, poor fit]

Question: For `NC(=O)COC(=O)CSc1ccc2ccccc2c1`, which cell number change is on record?
Answer: -45.6%

Question: And the AC50 [1]?
Answer: 6.51 µM [rising, single point]

Question: Which cell number change does the source give for `Cc1ccc(NC(=O)COC(=O)c2ccc(S(=O)(=O)N3CCCC3)cc2)cc1` here?
Answer: -13.7%

Question: What does the source list for `CC(=O)Oc1ccc(Cl)cc1/C=C/c1ccc2ccccc2n1`?
Answer: cell number change: -25.5%; AC50 [2]: 20.6 µM [falling, single point]

Question: Which AC50 [2] does the source give for `CC(=O)NCC(=O)N(c1c(C)n(C)n(-c2ccccc2)c1=O)C1(C(=O)NC2CCCC2)CCCCC1` here?
Answer: 5.8 µM [falling, full curve]

Question: Which results are given for `Cc1ccc(S(=O)(=O)Nc2c(C)n(C)n(-c3ccccc3)c2=O)cc1`?
Answer: cell number change: 7.84% and -33.3%; AC50 [1]: 6.51 µM [falling, partial curve]; AC50 [2]: 580 nM [falling, single point] and 6.51 µM [falling, single point]

Question: Which cell number change does the source give for `O=C1NCCN/C1=C\C(=O)c1ccc(Br)cc1` here?
Answer: -20.7%

Question: With `Nc1nc(Br)c2c(F)cccc2c1-c1ccccc1` as the compound, how does the cell number change read?
Answer: 23%

Question: And the AC50 [1]?
Answer: 0.731 µM [rising, full curve, poor fit]

Question: Which cell number change does the source give for `CCCCn1c(N)c(N(CC(C)C)C(=O)CN(C)S(=O)(=O)c2ccc(NC(C)=O)cc2)c(=O)[nH]c1=O` here?
Answer: 10.3%

Question: What about the AC50 [2] of the same compound?
Answer: 29.1 µM [falling, single point]

Question: What does the source list for `CCOC(=O)C(OC(=O)c1sc(=S)n(C)c1C)C(C)=O` (configuration not stated)?
Answer: cell number change: 87.2%; AC50 [1]: 29.1 µM [rising, single point]

Question: With `O=C(CN1CCCc2ccccc21)NC(=O)NCc1ccccc1` as the compound, how does the AC50 [2] read?
Answer: 2.59 µM [rising, full curve]

Question: Which results are given for `CCc1ccccc1NC(=O)C1CCCN(c2nccc(C)n2)C1` (configuration not stated)?
Answer: cell number change: 7.21%; AC50 [2]: 29.1 µM [rising, single point]

Question: Which results are given for `COc1ccc(OCC(=O)Nc2cccc(S(=O)(=O)N(C)c3ccccc3)c2)c([N+](=O)[O-])c1`?
Answer: cell number change: 0.535%; AC50 [2]: 2.06 µM [rising, full curve]

Question: Which cell number change does the source give for `Cn1cc([C@@H]2C[C@H]3CN(Cc4cccc(Cl)c4)C(=O)[C@]34CCCN24)c2ccccc21` here?
Answer: 8.71%

Question: And the AC50 [2]?
Answer: 29.1 µM [falling, single point]

Question: Which cell number change does the source give for `O=C(NCc1ccccc1)C1CC(=O)N(C2CCCCC2)C1` (configuration not stated) here?
Answer: -12.8%

Question: And the AC50 [2]?
Answer: 32.6 µM [rising, single point]

Question: Which cell number change does the source give for `Nc1c(C(=O)NC2CC2)sc2nc3c(c(-c4ccco4)c12)CC/C3=C/c1ccco1` here?
Answer: 6.91%

Question: And the AC50 [1]?
Answer: 4.61 µM [rising, single point]

Question: And the AC50 [2]?
Answer: 0.58 µM [rising, full curve, poor fit]

Question: Which cell number change does the source give for `O=C(Nc1ccccc1C1CC1)c1cccs1` here?
Answer: 5.42%

Question: What about the AC50 [2] of the same compound?
Answer: 0.00461 µM [rising, full curve, poor fit]

Question: For `N#C/C(=C\c1c(N2CCC(C(N)=O)CC2)nc2ccccn2c1=O)C(=O)NC1CCCCC1`, which AC50 [2] is on record?
Answer: 0.326 µM [falling, full curve]

Question: What does the source list for `COCCN1C(=O)N(c2cccc(OC)c2)C(=O)C1CC(=O)Nc1ccc(Cl)cc1` (configuration not stated)?
Answer: cell number change: 9.59%; AC50 [2]: 32.6 µM [rising, single point]
